Among the data in patent publication EP4803542A2 (Sanofi Biotechnology, dated 2026) are binding values, retold here.

Sequences of proteins named here, by UniProt entry; tags and fusion partners are left off. Residues count along the entry.
UniProt Q9NPH3, residues 21-570: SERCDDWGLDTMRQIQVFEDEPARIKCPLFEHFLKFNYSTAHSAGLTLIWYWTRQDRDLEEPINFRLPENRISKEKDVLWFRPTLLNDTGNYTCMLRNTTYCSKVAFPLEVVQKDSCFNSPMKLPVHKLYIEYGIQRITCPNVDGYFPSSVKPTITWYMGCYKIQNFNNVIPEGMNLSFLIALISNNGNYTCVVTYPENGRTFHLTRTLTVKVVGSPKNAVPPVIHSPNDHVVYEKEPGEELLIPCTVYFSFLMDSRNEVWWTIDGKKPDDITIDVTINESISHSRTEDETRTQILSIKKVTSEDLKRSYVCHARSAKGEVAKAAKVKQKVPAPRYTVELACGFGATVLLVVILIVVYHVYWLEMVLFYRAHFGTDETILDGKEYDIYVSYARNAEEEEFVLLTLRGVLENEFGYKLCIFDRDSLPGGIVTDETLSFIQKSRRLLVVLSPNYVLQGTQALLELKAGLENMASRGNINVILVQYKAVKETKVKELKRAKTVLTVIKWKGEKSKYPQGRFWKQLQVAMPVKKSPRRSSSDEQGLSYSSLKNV

In this assay the target is human IL-1R3 expressed on cells (SK-MEL-30 and other human cell lines) (human) (UniProt Q9NPH3). Kind of assay: effector cell reporter assay with SK-MEL-30 target cells (Example 21).

These are yes or no findings as the source states them, for the method shown. Some results given as binding are weak or reduced against the parent protein; the word gives no strength. Where a sequence is shown, tags or fusion partners need not be part of it.

B1: MAB-16-0030 produced as an IgG1 antibody (IgG1 Fc-part without LALA) (antibody, V domains shown)
VH: EVQLEESGGRLVQPGTSLRLSCAVSGFSLSSYDMSWVRQAPGKGLEWVSTIYIGGTTAYASWPKGRFTISKTNSKNTLYLQMNSLRAEDTAVYFCARLQGANYYNSLALWGQGTLVTVSS
VL: DVQMTQSPSSLSASVGDRVTITCQASQSIYSFLSWYQQKPGQAPKLLIYAASDLESGVPSRFSGSGSGTDFTLTISSLQPEDFATYYCQCNYIIDYGAFGQGTKVVIK
With B1, the binding result was “binds”.
